This passage reports binding results from patent US20020160403A1.

Protein sequences, listed by entry. Tags and fused reporters are not part of them. Lines headed by an entry give the natural chain unless they say otherwise; changes in a name come on top.
UniProt O43683: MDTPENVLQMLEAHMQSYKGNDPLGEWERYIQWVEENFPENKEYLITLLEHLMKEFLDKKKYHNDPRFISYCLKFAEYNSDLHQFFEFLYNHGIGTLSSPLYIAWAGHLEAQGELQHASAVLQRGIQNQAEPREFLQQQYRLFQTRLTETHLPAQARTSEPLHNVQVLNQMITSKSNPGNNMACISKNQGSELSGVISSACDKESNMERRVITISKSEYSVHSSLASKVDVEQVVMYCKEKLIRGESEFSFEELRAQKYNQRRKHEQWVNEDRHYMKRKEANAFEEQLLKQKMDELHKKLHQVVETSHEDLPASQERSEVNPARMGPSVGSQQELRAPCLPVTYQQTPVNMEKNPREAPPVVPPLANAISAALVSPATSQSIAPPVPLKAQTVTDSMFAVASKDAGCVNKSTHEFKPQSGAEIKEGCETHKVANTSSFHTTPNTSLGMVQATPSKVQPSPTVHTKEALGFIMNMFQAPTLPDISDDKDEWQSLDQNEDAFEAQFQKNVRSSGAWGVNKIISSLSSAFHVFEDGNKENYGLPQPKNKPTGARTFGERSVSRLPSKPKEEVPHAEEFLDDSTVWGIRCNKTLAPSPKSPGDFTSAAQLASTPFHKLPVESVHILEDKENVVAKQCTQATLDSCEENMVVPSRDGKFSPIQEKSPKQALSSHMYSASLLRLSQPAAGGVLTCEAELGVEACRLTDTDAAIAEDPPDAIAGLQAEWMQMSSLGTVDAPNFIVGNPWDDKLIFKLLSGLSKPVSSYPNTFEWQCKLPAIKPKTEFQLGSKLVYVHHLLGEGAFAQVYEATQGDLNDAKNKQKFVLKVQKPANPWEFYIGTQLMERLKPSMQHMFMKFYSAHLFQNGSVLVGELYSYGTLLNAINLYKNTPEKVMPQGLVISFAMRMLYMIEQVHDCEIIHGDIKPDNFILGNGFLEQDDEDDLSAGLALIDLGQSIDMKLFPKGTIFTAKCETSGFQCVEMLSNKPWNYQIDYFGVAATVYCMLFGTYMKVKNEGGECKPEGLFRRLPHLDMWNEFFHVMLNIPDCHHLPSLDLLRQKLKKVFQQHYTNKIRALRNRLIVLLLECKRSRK
UniProt O43684: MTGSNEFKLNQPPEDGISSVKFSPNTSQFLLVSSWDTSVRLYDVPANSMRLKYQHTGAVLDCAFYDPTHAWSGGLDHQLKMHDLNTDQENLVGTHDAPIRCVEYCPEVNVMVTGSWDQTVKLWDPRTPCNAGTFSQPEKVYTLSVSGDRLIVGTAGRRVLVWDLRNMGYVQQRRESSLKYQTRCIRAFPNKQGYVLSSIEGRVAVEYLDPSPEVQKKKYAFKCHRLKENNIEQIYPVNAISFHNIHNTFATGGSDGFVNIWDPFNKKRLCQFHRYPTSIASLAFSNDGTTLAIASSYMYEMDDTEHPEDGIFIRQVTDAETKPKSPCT

Results are given in words; binding and its absence hold for the method and conditions named. For some assays here: In cells and extracts the contact can be indirect. Some binding calls cover weakened binding; strength is not graded here.

For assay [1], the target named is huBUB1 protein (plasmid p337-50) (human) (UniProt O43683). Put plainly: co-translation in vitro, anti-FLAG co-immunoprecipitation, SDS-PAGE autoradiography.
Assay [2] has the same target. Put plainly: co-translation in vitro, anti-FLAG co-immunoprecipitation.
The target is the same in assay [3]. Put plainly: co-immunoprecipitation of 35S-labeled co-translated proteins with M1 anti-FLAG agarose.
In assay [4] the target is FLAG-huBUB3 protein fusion (plasmid p322-1) (human) (UniProt O43684). The experiment in a line: retention by HA-huBUB1 before kinase reactions; format not described.
In assay [5] the target is huBUB3 protein (untagged; expression plasmid p291-2, ~2.7 kb variant) (human) (UniProt O43684). The assay is described as above.
In assay [6] the target is huBUB1 protein (plasmid p337-50) (human) (UniProt O43683). The experiment in a line: co-immunoprecipitation (refers to Example 10).
Assay [7] has the same target. Put plainly: co-immunoprecipitation of in vitro translated proteins.
Another assay concerns the target HA-huBUB1 (human) (UniProt O43683). The experiment in a line: co-translation with HA-huBUB1; format not described.

Take “FLAG-huBUB3 protein fusion (plasmid p322-1) (from UniProt O43684 2-328)”: the binding result in assay [1], in assay [2] and in assay [3] was “binds” each time.

Take “HA-huBUB1 (from UniProt O43683 1-1085) (enzyme)”: the binding entry in assay [4] and in assay [5] was “binds” each time.

With “huBUB3 protein (untagged; expression plasmid p291-2, ~2.7 kb variant) (from UniProt O43684 1-328)”, the binding entry (in assay [6]; in assay [7]; in the assay with HA-huBUB1 (human)) was “binds” each time.
